40 sequences from article PMC7862700 can be followed below.

Only a part is listed here, and it is no random draw. At the low end of the ranking the order means little.

The target of this experiment is SPI1 (UniProt P17947). The experiment can be described thus: DAPPL (digital affinity profiling via proximity ligation, sequencing). The note with it: 10 mM Tris-HCl pH 7.5, 50 mM NaCl, 1 mM DTT, 4% glycerol, room temperature, 30 min; GST-TFs on glutathione beads, 16-mer random dsDNA library, 0.1% …; high values mean tight binding; double strand, one strand shown; scale: fold enrichment (6-mer frequency, TF over GST control).
For GGAGGT, the binding signal was 0.348.
Under GTAGGG stands 0.747; under GGACCA, 0.77; under AGACGA, 0.748.
Under AGCGGG stands 0.495; under GAGTTC, 0.765.
Under AGTGTG stands 0.888; under GACTCA, 0.933; under GGGGTG, 0.655.
AGCGCA: the binding signal amounted to 0.894.
As to CAGACA, the binding signal was 0.766.
The value for GGAGAG was 0.256; that for GAACAG was 0.978; that for GAAGGG was 0.821.
CGTCGG showed a binding signal of 0.415.
Under ACACGT stands 0.848.
The value for TAGGCG was 0.62.
The value for GACGGA was 0.496; that for TAGGTG was 0.83; that for CTAGAG was 0.85.
CCATCG had a binding signal of 0.776.
Under GGGTGA stands 0.663; under CGGCGA, 0.721.
The value for CAAGCG was 0.856.
GAACCG yielded a binding signal of 0.768.
Under GAGCAT stands 0.687; under AGCACC, 0.918.
Under AGTTAG stands 0.882.
The value for GGTGAT was 0.754.
Sequence GCGTGC gave a binding signal of 0.788.
Under AGGGGC stands 0.714; under GTCATG, 0.839.
Under GAGTAA stands 0.565.
Under GGCAGG stands 0.588; under TTGGAG, 0.53; under TACGTG, 0.647.
In turn, GCATGC came in with a binding signal of 0.827.
Under ACTAGT stands 0.946.
The value for AGTAGT was 0.933; that for CAGAGT was 0.601.
